Holding throughout (test): EMSA
Series [1] has as its target T1, R.PabI(K154A) K151A (Pyrococcus abyssi) (UniProt G8ZFZ3).
T1 sequence (looked up, limits assumed): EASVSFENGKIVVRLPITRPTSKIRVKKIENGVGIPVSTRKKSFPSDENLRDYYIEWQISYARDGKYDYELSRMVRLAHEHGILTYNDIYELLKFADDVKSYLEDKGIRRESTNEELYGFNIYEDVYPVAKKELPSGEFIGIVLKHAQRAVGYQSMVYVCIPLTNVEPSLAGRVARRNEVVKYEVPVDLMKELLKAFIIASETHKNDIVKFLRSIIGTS
The settings on record: 50-fold excess unlabelled nonspecific competitor (S2 duplex), EMSA: 10 mM MES pH 6.0, 300 mM NaCl, 0.1 uM probe, 25-fold (Y68F series) or 50-fold (K154A series) unlabelled nonspecific competitor, 10% PAGE, 0.5x TBE, 4 C, recombinant protein, label: 5'-fluorescein on strand 1.

For series [2], the target named is T2, R.PabI(K154A-P27G-T28G) P24G,T25G,K151A (Pyrococcus abyssi) (UniProt G8ZFZ3).
T2 sequence (looked up, limits assumed): T1 sequence (looked up, limits assumed) with P20G, T21G
Particulars: 50-fold excess unlabelled nonspecific competitor (S2 duplex), reduced vs K154A; EMSA: 10 mM MES pH 6.0, 300 mM NaCl, 0.1 uM probe, 25-fold (Y68F series) or 50-fold (K154A series) unlabelled nonspecific competitor; 10% PAGE, 0.5x TBE, 4 C; recombinant protein; label: 5'-fluorescein on strand 1.

Series [3] has as its target T3, R.PabI(Y68F) Y65F (Pyrococcus abyssi) (UniProt G8ZFZ3).
T3 sequence (looked up, limits assumed): T1 sequence (looked up, limits assumed) with Y61F, A147K, A150K
The settings on record: 25-fold excess unlabelled nonspecific competitor (S2 duplex); EMSA: 10 mM MES pH 6.0, 300 mM NaCl, 0.1 uM probe, 25-fold (Y68F series) or 50-fold (K154A series) unlabelled nonspecific competitor; 10% PAGE, 0.5x TBE, 4 C; recombinant protein; label: 5'-fluorescein on strand 1.

In series [4] the target is T4, R.PabI(Y68F-P27G-T28G) P24G,T25G,Y65F (Pyrococcus abyssi) (UniProt G8ZFZ3).
T4 sequence (looked up, limits assumed): T1 sequence (looked up, limits assumed) with P20G, T21G, Y61F, A147K, A150K
The settings on record: 25-fold excess unlabelled nonspecific competitor (S2 duplex), highly reduced vs Y68F; EMSA: 10 mM MES pH 6.0, 300 mM NaCl, 0.1 uM probe, 25-fold (Y68F series) or 50-fold (K154A series) unlabelled nonspecific competitor; 10% PAGE, 0.5x TBE, 4 C; recombinant protein; label: 5'-fluorescein on strand 1.

Residue numbers refer to the chain shown, from its start. The exact form of at least one protein or probe is not confirmed. For part of these data: The comparison behind a weaker result is the experiment's own reference, which may not be listed here. For part of these data: At least one verdict rests on a figure or table, not on a statement of the authors. Where a protein sequence is shown, tags need not be part of it.

The values that follow come from publication PMC7229829, “Distortion of double-stranded DNA structure by the binding of the restriction DNA glycosylase R.PabI” (Nucleic Acids Research, 2020).

Regarding “GGATGCATGAGATCGAGGACCATC (double strand) [nonspecific probe (24 bp)]”, the binding result in series [1] was “binds”; in series [2], “binds more weakly”.

Regarding “GGATGCATGAGTACGAGGACCATC (double strand) [specific probe (24 bp)]”, the binding result in series [1] (two shifted bands) is reported as “binds”; in series [2], “binds more weakly”; in series [3], “binds”; in series [4], “binds more weakly”.
